Paper PMC4374139

By UniProt entry, the sequences of proteins in these tests, tags left out. Where a name states a change or a piece, a line headed by the entry shows the natural chain unless it says otherwise.
UniProt Q92547: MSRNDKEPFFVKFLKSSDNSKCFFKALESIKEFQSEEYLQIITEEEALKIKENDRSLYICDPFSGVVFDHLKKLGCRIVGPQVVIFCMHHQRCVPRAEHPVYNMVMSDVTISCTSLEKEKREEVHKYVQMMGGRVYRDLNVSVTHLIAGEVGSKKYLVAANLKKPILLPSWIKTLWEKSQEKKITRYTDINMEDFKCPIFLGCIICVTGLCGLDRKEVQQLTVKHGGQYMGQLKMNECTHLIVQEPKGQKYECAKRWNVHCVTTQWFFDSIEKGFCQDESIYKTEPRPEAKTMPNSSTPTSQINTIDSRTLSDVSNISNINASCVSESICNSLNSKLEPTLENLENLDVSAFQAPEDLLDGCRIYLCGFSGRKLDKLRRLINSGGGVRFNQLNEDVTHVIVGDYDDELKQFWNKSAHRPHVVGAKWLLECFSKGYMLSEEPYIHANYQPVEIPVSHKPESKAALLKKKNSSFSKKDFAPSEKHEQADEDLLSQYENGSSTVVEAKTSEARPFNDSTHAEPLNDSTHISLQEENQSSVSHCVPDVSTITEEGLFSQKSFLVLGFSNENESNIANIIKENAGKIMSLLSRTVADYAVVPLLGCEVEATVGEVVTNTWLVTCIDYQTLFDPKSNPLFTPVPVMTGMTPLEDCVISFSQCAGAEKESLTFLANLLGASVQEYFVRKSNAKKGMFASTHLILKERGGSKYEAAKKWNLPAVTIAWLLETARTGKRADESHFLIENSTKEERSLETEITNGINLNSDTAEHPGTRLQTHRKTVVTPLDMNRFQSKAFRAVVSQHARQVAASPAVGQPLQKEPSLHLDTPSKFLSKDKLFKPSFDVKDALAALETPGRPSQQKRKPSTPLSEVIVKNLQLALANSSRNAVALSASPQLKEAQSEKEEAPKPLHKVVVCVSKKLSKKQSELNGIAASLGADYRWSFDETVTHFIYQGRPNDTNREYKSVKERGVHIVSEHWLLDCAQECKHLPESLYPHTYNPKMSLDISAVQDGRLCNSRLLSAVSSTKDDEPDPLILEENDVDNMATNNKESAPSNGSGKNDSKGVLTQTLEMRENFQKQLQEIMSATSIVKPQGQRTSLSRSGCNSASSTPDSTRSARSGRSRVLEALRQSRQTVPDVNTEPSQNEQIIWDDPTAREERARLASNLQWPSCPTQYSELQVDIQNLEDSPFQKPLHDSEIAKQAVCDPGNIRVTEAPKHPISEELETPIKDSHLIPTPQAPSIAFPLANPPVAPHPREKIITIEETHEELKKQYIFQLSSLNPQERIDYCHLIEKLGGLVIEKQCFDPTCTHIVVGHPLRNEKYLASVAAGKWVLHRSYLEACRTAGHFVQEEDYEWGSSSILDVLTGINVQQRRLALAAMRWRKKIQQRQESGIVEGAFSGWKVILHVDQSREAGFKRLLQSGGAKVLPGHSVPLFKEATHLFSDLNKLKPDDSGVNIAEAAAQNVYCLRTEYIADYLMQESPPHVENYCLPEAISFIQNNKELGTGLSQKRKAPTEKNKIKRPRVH
UniProt P54132: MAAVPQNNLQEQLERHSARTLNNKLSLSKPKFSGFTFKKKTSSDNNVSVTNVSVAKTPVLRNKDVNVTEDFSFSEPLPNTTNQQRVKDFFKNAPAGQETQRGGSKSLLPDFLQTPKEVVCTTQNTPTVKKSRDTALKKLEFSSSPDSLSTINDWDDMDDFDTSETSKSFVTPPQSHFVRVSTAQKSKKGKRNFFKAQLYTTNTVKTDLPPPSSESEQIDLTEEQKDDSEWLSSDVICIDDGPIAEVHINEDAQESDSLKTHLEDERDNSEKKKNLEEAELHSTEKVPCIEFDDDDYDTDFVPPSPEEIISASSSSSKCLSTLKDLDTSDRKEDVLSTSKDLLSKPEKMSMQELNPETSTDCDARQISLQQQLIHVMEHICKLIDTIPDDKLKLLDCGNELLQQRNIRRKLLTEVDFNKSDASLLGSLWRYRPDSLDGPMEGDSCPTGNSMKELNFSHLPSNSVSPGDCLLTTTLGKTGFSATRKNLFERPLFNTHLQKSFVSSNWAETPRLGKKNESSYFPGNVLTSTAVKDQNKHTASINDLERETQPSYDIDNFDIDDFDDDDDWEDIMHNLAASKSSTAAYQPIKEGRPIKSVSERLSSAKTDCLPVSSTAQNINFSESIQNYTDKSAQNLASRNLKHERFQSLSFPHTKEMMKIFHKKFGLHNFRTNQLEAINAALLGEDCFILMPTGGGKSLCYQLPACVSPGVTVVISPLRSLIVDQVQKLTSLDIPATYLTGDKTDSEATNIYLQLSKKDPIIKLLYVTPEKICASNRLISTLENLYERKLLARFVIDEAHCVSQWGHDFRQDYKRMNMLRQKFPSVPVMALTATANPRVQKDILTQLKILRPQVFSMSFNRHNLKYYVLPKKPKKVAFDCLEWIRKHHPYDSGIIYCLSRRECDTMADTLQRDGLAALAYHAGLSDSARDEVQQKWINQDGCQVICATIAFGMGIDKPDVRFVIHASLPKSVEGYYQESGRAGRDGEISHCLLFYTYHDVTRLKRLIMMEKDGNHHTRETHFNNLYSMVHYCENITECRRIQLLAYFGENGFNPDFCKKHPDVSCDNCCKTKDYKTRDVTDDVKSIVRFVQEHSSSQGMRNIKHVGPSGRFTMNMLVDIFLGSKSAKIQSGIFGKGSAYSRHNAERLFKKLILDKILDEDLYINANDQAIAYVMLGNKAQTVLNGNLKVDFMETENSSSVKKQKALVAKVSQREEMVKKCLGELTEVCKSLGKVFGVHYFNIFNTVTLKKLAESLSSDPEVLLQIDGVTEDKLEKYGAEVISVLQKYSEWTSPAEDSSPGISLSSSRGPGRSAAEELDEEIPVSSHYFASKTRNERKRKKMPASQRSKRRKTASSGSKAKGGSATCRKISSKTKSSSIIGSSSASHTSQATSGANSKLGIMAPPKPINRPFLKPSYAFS

B1: topoisomerase IIIα (TOP3A) (protein, UniProt Q13472 1-1001)
chain: MIFPVARYALRWLRRPEDRAFSRAAMEMALRGVRKVLCVAEKNDAAKGIADLLSNGRMRRREGLSKFNKIYEFDYHLYGQNVTMVMTSVSGHLLAHDFQMQFRKWQSCNPLVLFEAEIEKYCPENFVDIKKTLERETRQCQALVIWTDCDREGENIGFEIIHVCKAVKPNLQVLRARFSEITPHAVRTACENLTEPDQRVSDAVDVRQELDLRIGAAFTRFQTLRLQRIFPEVLAEQLISYGSCQFPTLGFVVERFKAIQAFVPEIFHRIKVTHDHKDGIVEFNWKRHRLFNHTACLVLYQLCVEDPMATVVEVRSKPKSKWRPQALDTVELEKLASRKLRINAKETMRIAEKLYTQGYISYPRTETNIFPRDLNLTVLVEQQTPDPRWGAFAQSILERGGPTPRNGNKSDQAHPPIHPTKYTNNLQGDEQRLYEFIVRHFLACCSQDAQGQETTVEIDIAQERFVAHGLMILARNYLDVYPYDHWSDKILPVYEQGSHFQPSTVEMVDGETSPPKLLTEADLIALMEKHGIGTDATHAEHIETIKARMYVGLTPDKRFLPGHLGMGLVEGYDSMGYEMSKPDLRAELEADLKLICDGKKDKFVVLRQQVQKYKQVFIEAVAKAKKLDEALAQYFGNGTELAQQEDIYPAMPEPIRKCPQCNKDMVLKTKKNGGFYLSCMGFPECRSAVWLPDSVLEASRDSSVCPVCQPHPVYRLKLKFKRGSLPPTMPLEFVCCIGGCDDTLREILDLRFSGGPPRASQPSGRLQANQSLNRMDNSQHPQPADSRQTGSSKALAQTLPPPTAAGESNSVTCNCGQEAVLLTVRKEGPNRGRQFFKCNGGSCNFFLWADSPNPGAGGPPALAYRPLGASLGCPPGPGIHLGGFGNPGDGSGSGTSCLCSQPSVTRTVQKDGPNKGRQFHTCAKPREQQCGFFQWVDENTAPGTSGAPSWTGDRGRTLESEARSKRPRASSSDMGSTAKKPRKCSLCHQPGHTRPFCPQNR
B2: RMI1 (protein, UniProt Q9H9A7 1-625)
chain: MNVTSIALRAETWLLAAWHVKVPPMWLEACINWIQEENNNVNLSQAQMNKQVFEQWLLTDLRDLEHPLLPDGILEIPKGELNGFYALQINSLVDVSQPAYSQIQKLRGKNTTNDLVTAEAQVTPKPWEAKPSRMLMLQLTDGIVQIQGMEYQPIPILHSDLPPGTKILIYGNISFRLGVLLLKPENVKVLGGEVDALLEEYAQEKVLARLIGEPDLVVSVIPNNSNENIPRVTDVLDPALGPSDEELLASLDENDELTANNDTSSERCFTTGSSSNTIPTRQSSFEPEFVISPRPKEEPSNLSIHVMDGELDDFSLEEALLLEETVQKEQMETKELQPLTFNRNADRSIERFSHNPNTTNNFSLTCKNGNNNWSEKNVSEQMTNEDKSFGCPSVRDQNRSIFSVHCNVPLAHDFTNKEKNLETDNKIKQTSSSDSHSLNNKILNREVVNYVQKRNSQISNENDCNLQSCSLRSSENSINLSIAMDLYSPPFVYLSVLMASKPKEVTTVKVKAFIVTLTGNLSSSGGIWSITAKVSDGTAYLDVDFVDEILTSLIGFSVPEMKQSKKDPLQYQKFLEGLQKCQRDLIDLCCLMTISFNPSLSKAMVLALQDVNMEHLENLKKRLNK
B3: RMI2 (protein, UniProt Q96E14 1-147)
chain: MAAAADSFSGGPAGVRLPRSPPLKVLAEQLRRDAEGGPGAWRLSRAAAGRGPLDLAAVWMQGRVVMADRGEARLRDPSGDFSVRGLERVPRGRPCLVPGKYVMVMGVVQACSPEPCLQAVKMTDLSDNPIHESMWELEVEDLHRNIP

Molecular target: TopBP1 BRCT5 mutant of Figure 1F (UniProt Q92547)
Test: co-IP; pull-down of GFP-tagged TopBP1 or BLM constructs (GFP-Trap agarose) from lysates of transiently transfected 293FT cells, 24 hr after transfection; also cells synchronized in S phase (Figure S3A); Benzonase-treated lysate, 200 mM NaCl, 2 mM EDTA, 4°C; western blot

Molecule	binding
Bloom syndrome helicase BLM, endogenous (from UniProt P54132 1-1417)	no binding
B1	no binding
B2	no binding
B3	no binding

These are yes or no findings as the source states them, for the method shown. Binding seen in cells or lysates may run through a third protein.
